From publication PMC7237644
These are yes or no findings as the source states them, for the method shown. In cells and extracts the contact can be indirect. Some binding calls cover weakened binding; strength is not graded here.

By UniProt entry, the sequences of proteins in these tests, tags left out. Residues count along the entry.
UniProt P19838, residues 1-433: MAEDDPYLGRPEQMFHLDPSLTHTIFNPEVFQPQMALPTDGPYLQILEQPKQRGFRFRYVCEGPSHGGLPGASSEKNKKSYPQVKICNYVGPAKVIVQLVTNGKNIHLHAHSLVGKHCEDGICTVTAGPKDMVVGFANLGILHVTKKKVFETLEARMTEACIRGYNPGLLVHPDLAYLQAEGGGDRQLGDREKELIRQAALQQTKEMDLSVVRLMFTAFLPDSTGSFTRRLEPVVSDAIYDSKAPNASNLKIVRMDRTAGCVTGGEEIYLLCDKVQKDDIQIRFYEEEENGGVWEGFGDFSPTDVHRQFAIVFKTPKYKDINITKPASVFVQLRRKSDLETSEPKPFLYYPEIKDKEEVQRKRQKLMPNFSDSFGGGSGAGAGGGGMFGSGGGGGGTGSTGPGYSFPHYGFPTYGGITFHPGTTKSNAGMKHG
UniProt Q04206: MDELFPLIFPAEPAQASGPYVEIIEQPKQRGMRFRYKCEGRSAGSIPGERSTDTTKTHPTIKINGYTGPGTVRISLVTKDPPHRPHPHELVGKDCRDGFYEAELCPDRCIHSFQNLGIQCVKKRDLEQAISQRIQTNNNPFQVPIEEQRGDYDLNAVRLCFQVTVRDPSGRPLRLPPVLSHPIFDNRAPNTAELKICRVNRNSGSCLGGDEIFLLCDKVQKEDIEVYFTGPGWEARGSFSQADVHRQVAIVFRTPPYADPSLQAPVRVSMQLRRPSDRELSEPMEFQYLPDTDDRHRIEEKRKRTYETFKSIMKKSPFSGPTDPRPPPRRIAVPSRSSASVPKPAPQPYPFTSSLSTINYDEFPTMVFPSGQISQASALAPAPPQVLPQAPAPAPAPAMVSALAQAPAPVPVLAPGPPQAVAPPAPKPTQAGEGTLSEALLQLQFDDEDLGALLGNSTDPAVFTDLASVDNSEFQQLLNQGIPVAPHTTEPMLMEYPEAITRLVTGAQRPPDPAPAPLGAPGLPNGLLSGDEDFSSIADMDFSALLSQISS

Biological target: p50, Flag-tagged (pFlag-p50 / p50-Flag) (UniProt P19838)
Assay: co-IP; HEK293T cotransfected with tagged plasmids, 24 h; RIPA lysis at 4°C; lysate with anti-Flag, anti-HA, anti-Myc (or anti-EYFP) antibody or control mouse IgG and protein A/G PLUS-Agarose at 4°C overnight; washed with PBS; Western blot

p65-EYFP (pp65-EYFP) (from UniProt Q04206 1-551)
binding: binds
